From article PMC10957929
Construct, isoform or probe ends are uncertain for at least one entry. At least one verdict was read from the data and is not stated in words by the source. Tags and fusion partners may be left off the protein sequences shown.

Molecular target: T1, GST-DRG9Nip (Oryza sativa ssp. japonica cv. Nipponbare) (UniProt Q69P58)
T1 sequence (looked up, limits assumed): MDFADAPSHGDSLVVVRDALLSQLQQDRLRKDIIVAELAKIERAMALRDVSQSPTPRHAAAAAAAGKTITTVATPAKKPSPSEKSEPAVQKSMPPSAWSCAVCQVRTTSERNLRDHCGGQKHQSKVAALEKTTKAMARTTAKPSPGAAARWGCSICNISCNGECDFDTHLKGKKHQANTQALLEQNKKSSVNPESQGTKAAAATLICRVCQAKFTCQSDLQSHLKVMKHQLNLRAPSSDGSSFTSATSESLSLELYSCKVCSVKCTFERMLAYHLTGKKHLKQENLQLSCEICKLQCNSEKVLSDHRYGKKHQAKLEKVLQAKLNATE
Assay: EMSA
Conditions: 20 mM Hepes pH 7.5, 1 mM MgCl2, 10 mM ZnCl2, 5 mM DTT, 10% glycerol, 0.1% NP-40, room temperature, 1 h; 6% native PAGE, 0.5x TBE; recombinant protein; protein details: N-terminal GST (pGEX4t-1); label: 5'-FAM

Q: Does “GGGCACUCUUCCGUGGUCUGGUGGAAUUCCGUCAGACAACGGGGGAGCGCUCCUUUU [T57A RNA]” bind?
A: Result: binds
